Results as given in article PMC7467722.
No constants are given. Whether binding was seen depends on the method and setting. Binding seen in cells or lysates may run through a third protein. Some entries that bind do so weakly or less than the wild type. Tags and fused reporters may be left off the sequences shown.

Sequences of proteins named here, by UniProt entry; tags and fusion partners are left off. Residues count along the entry.
UniProt P27038, residues 20-135: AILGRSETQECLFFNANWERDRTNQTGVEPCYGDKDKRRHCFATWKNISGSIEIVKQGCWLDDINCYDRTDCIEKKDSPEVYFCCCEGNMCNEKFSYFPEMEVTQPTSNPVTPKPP

T1: CDON-Fc (secreted CDON ectodomain fused at its carboxy terminus with the IgG Fc region) (UniProt O35158)
T1 sequence: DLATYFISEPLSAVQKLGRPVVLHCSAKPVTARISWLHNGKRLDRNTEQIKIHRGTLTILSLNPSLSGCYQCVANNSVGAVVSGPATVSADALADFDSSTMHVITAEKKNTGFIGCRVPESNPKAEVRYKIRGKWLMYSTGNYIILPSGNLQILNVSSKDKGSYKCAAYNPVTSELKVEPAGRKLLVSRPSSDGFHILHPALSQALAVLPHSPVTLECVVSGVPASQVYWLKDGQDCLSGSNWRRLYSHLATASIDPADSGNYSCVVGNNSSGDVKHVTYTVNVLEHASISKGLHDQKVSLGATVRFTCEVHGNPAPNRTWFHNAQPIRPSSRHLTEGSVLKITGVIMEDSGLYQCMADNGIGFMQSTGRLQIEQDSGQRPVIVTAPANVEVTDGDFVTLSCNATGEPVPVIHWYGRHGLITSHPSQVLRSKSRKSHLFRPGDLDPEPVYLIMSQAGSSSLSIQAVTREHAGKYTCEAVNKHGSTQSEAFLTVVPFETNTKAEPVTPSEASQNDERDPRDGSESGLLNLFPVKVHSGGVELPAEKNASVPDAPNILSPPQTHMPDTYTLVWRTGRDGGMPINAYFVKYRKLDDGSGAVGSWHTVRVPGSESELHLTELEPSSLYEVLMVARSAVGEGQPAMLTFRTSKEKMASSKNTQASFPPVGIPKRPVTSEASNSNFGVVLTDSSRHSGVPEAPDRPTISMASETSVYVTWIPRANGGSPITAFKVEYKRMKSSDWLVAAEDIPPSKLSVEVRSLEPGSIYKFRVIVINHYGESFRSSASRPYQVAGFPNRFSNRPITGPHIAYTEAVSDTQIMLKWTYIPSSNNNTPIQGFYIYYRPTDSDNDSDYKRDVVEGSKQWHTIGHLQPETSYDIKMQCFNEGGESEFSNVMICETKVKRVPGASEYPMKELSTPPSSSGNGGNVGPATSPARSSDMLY

T2: ALK4-AP (ALK4 ectodomain fused at its carboxy terminus with alkaline phosphatase) (UniProt Q61271)
T2 sequence: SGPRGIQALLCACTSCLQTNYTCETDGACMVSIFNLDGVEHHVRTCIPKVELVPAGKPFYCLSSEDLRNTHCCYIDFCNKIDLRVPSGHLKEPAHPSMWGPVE

T3: ActRIIB-AP (Activin receptor IIB ectodomain fused at its carboxy terminus with alkaline phosphatase) (UniProt P27040)
T3 sequence: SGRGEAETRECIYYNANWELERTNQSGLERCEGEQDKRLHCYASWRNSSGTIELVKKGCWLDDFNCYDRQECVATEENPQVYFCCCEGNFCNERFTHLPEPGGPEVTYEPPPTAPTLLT


Key:
[1] = target: T1, CDON-Fc (secreted CDON ectodomain fused at its carboxy terminus with the IgG Fc region); experiment: pull-down; CDON-Fc co-expressed with AP-tagged protein in HEK293T; equivalent levels of Fc pulled down from conditioned medium with protein G agarose beads, 2 hr at 4°C, washed five times with HNTG buffer; associated AP enzyme activity quantified
[2] = target: T2, ALK4-AP (ALK4 ectodomain fused at its carboxy terminus with alkaline phosphatase); experiment: pull-down; AP-tagged protein co-expressed with CDON-Fc in HEK293T; equivalent amounts of AP fusion proteins in conditioned medium pulled down with anti-AP agarose beads overnight at 4°C, washed five times with HNTG buffer (20 mM HEPES pH 7.5, 150 mM NaCl, 0.1% Triton X-100, 10% glycerol); captured CDON-Fc blotted with anti-human Fc
[3] = target: ActRIIA-AP (Activin receptor IIA ectodomain fused at its carboxy terminus with alkaline phosphatase) (UniProt P27038); experiment: as above
[4] = target: T3, ActRIIB-AP (Activin receptor IIB ectodomain fused at its carboxy terminus with alkaline phosphatase); experiment: as above

Row | binding [1] | binding [2] | binding [3] | binding [4] | Molecule
1 | binds weakly | – | – | – | ActRIIA-AP (Activin receptor IIA ectodomain fused at its carboxy terminus with alkaline phosphatase) (from UniProt P27038 20-135) (domain or fragment)
2 | – | binds weakly | binds weakly | binds weakly | CDON-Fc (secreted CDON ectodomain fused at its carboxy terminus with the IgG Fc region) (Fc fusion, UniProt O35158 25-963) DLATYFISEPLSAVQKLGRPVVLHCSAKPVTARISWLHNGKRLDRNTEQIKIHRGTLTILSLNPSLSGCYQCVANNSVGAVVSGPATVSADALADFDSSTMHVITAEKKNTGFIGCRVPESNPKAEVRYKIRGKWLMYSTGNYIILPSGNLQILNVSSKDKGSYKCAAYNPVTSELKVEPAGRKLLVSRPSSDGFHILHPALSQALAVLPHSPVTLECVVSGVPASQVYWLKDGQDCLSGSNWRRLYSHLATASIDPADSGNYSCVVGNNSSGDVKHVTYTVNVLEHASISKGLHDQKVSLGATVRFTCEVHGNPAPNRTWFHNAQPIRPSSRHLTEGSVLKITGVIMEDSGLYQCMADNGIGFMQSTGRLQIEQDSGQRPVIVTAPANVEVTDGDFVTLSCNATGEPVPVIHWYGRHGLITSHPSQVLRSKSRKSHLFRPGDLDPEPVYLIMSQAGSSSLSIQAVTREHAGKYTCEAVNKHGSTQSEAFLTVVPFETNTKAEPVTPSEASQNDERDPRDGSESGLLNLFPVKVHSGGVELPAEKNASVPDAPNILSPPQTHMPDTYTLVWRTGRDGGMPINAYFVKYRKLDDGSGAVGSWHTVRVPGSESELHLTELEPSSLYEVLMVARSAVGEGQPAMLTFRTSKEKMASSKNTQASFPPVGIPKRPVTSEASNSNFGVVLTDSSRHSGVPEAPDRPTISMASETSVYVTWIPRANGGSPITAFKVEYKRMKSSDWLVAAEDIPPSKLSVEVRSLEPGSIYKFRVIVINHYGESFRSSASRPYQVAGFPNRFSNRPITGPHIAYTEAVSDTQIMLKWTYIPSSNNNTPIQGFYIYYRPTDSDNDSDYKRDVVEGSKQWHTIGHLQPETSYDIKMQCFNEGGESEFSNVMICETKVKRVPGASEYPMKELSTPPSSSGNGGNVGPATSPARSSDMLY
3 | binds weakly | – | – | – | ALK4-AP (ALK4 ectodomain fused at its carboxy terminus with alkaline phosphatase) (domain or fragment, UniProt Q61271 24-126) SGPRGIQALLCACTSCLQTNYTCETDGACMVSIFNLDGVEHHVRTCIPKVELVPAGKPFYCLSSEDLRNTHCCYIDFCNKIDLRVPSGHLKEPAHPSMWGPVE
4 | binds weakly | – | – | – | ActRIIB-AP (Activin receptor IIB ectodomain fused at its carboxy terminus with alkaline phosphatase) (domain or fragment, UniProt P27040 19-137) SGRGEAETRECIYYNANWELERTNQSGLERCEGEQDKRLHCYASWRNSSGTIELVKKGCWLDDFNCYDRQECVATEENPQVYFCCCEGNFCNERFTHLPEPGGPEVTYEPPPTAPTLLT
